For the experiment, the system named is MDA-MB-468. Description: phospho-S6 immunofluorescence (DAPI-normalised), per-plate z-score; higher = higher phospho-S6 signal (less pathway suppression). The conditions noted are these: 24 h. How it is done:
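GPCR-targeted compound library (MedChemExpress HY-L006) tested on MDA-MB-468 PTEN-null TNBC cells in 384-well plates at 0.1, 1 or 10 uM, combined with vehicle, GDC0941 450 nM or lapatinib 1 uM, for 24 h. Phospho-S6 (S240/244) immunofluorescence normalised to DAPI and expressed as a per-plate z-score; values are the mean of biological triplicates.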

[1] abbreviates: compound 0.1 µM, co-treatment: GDC0941 450 nM.
The mark [2] stands for this setting: compound 0.1 µM, co-treatment: lapatinib 1 uM.
[3] abbreviates: compound 0.1 µM, co-treatment: vehicle.
Setting [4] is: compound 1 µM, co-treatment: GDC0941 450 nM.
[5] abbreviates: compound 1 µM, co-treatment: lapatinib 1 uM.
The mark [6] stands for this setting: compound 1 µM, co-treatment: vehicle.
Where [7] appears, read: compound 10 µM, co-treatment: GDC0941 450 nM.
The mark [8] stands for this setting: compound 10 µM, co-treatment: lapatinib 1 uM.
Setting [9] is: compound 10 µM, co-treatment: vehicle.

The record followed here is the supplement of paper PMC7411640.

Counter-ions that a name gives are not always drawn. The list shows a part of the results. Most values lie within the scatter of the assay; repeated measurements hardly agree.

In the case of `C[N+]1(C)[C@@H]2C[C@@H](OC(=O)[C@H](CO)c3ccccc3)C[C@H]1[C@@H]1O[C@@H]12` [Methscopolamine (bromide)], the “phospho-S6 immunofluorescence (z-score)” value turned out to be 0.15 under setting [1]; 0.2 under setting [2]; 1.67 under setting [3]; 1.29 under setting [4]; 0.61 under setting [5]; 0.46 under setting [6]. Further, the “phospho-S6 immunofluorescence (z-score)” value is, setting by setting: under setting [7], 0.05; under setting [8], 0.43; under setting [9], 0.6.
Consider `CN1CCC(c2c[nH]c3ccc(O)cc23)CC1`, for which the “phospho-S6 immunofluorescence (z-score)” value by setting is: under setting [1], -0.33; under setting [2], 0.66; under setting [3], -0.63; under setting [4], 0.25; under setting [5], 0.72; under setting [6], -0.52. Also, the “phospho-S6 immunofluorescence (z-score)” value by setting is: under setting [7], 0.22; under setting [8], 0.55; under setting [9], 0.06.
Regarding `C[C@@H]1CN(Cc2ccc(F)cc2)CCN1C(=O)COc1ccc(Cl)cc1NC(N)=O`, the “phospho-S6 immunofluorescence (z-score)” value is -3.63 under setting [1]; -1.28 under setting [2]; -0.87 under setting [3]; -5.49 under setting [4]; -7.94 under setting [5]; -5.66 under setting [6]. In addition, the “phospho-S6 immunofluorescence (z-score)” value was -3.5 under setting [7], -6.96 under setting [8] and -8.26 under setting [9].
On to `O=C(O[C@H]1C[C@H]2CC[C@@H](C1)[N+]21CCCC1)C(O)(c1ccccc1)c1ccccc1` [Trospium (chloride)], for which the “phospho-S6 immunofluorescence (z-score)” value is -0.07 under setting [1]; -0.25 under setting [2]; -1.08 under setting [3]; -1.5 under setting [4]; -0.28 under setting [5]; -2.21 under setting [6]. Further, the “phospho-S6 immunofluorescence (z-score)” value is, setting by setting: under setting [7], -0.76; under setting [8], 0.26; under setting [9], -1.07.
For the molecule `CN1[C@@H]2CC[C@H]1C[C@@H](OC(=O)C(CO)c1ccccc1)C2` (some centres undefined) [Atropine (sulfate monohydrate)], the “phospho-S6 immunofluorescence (z-score)” value was -2.19 under setting [1]; -0.96 under setting [2]; -1.91 under setting [3]; -1.09 under setting [4]; 0.21 under setting [5]; -1.6 under setting [6]. Moreover, the “phospho-S6 immunofluorescence (z-score)” value reads like this: under setting [7], -1.09; under setting [8], -0.18; under setting [9], -0.82.
With `CC(C)(C)NCC(O)c1cc(Cl)c(N)c(Cl)c1` (centres undefined) [Clenbuterol (hydrochloride)], the “phospho-S6 immunofluorescence (z-score)” value runs as follows: under setting [1], 0.54; under setting [2], 0.77; under setting [3], 0.78; under setting [4], -0.03; under setting [5], 2.34; under setting [6], 0.8. The “phospho-S6 immunofluorescence (z-score)” value turned out to be 1.42 under setting [7], 1.64 under setting [8] and 0.37 under setting [9].
`CC(C)(C)NCC(O)c1ccc(O)cc1Cl` (centres undefined): the “phospho-S6 immunofluorescence (z-score)” value runs as follows: under setting [1], 0.51; under setting [2], 1.28; under setting [3], 0.66; under setting [4], 0.73; under setting [5], 1.8; under setting [6], -0.05. The “phospho-S6 immunofluorescence (z-score)” value under setting [7] came out at 0.77, the “phospho-S6 immunofluorescence (z-score)” value under setting [8] was 0.7 and the “phospho-S6 immunofluorescence (z-score)” value under setting [9] stood at 0.14.
Turning to `C[C@H]1CNCCc2ccc(Cl)cc21` [Lorcaserin (Hydrochloride)], the “phospho-S6 immunofluorescence (z-score)” value reads like this: under setting [1], 0.17; under setting [2], -0.45; under setting [3], -0.09; under setting [4], 0.12; under setting [5], 0.44; under setting [6], -0.53. In addition, the “phospho-S6 immunofluorescence (z-score)” value was -1 under setting [7], -0.25 under setting [8] and -0.95 under setting [9].
Consider `NCCc1cc(O)c(O)cc1O` [Oxidopamine (hydrobromide)], for which the “phospho-S6 immunofluorescence (z-score)” value under setting [1] was -1.04; the “phospho-S6 immunofluorescence (z-score)” value under setting [2] is -1.54; the “phospho-S6 immunofluorescence (z-score)” value under setting [3] was -0.51; the “phospho-S6 immunofluorescence (z-score)” value under setting [4] was -0.95; the “phospho-S6 immunofluorescence (z-score)” value under setting [5] was found to be 0.5; the “phospho-S6 immunofluorescence (z-score)” value under setting [6] is -0.1. For the same molecule, the “phospho-S6 immunofluorescence (z-score)” value runs as follows: under setting [7], 0.33; under setting [8], 2.77; under setting [9], 2.94.
Regarding `CN1CCC(C(=O)c2cccc(NC(=O)c3c(F)cc(F)cc3F)n2)CC1` [Lasmiditan (hydrochloride)], the “phospho-S6 immunofluorescence (z-score)” value is -0.63 under setting [1]; 1.08 under setting [2]; 0.99 under setting [3]; -1.02 under setting [4]; -0.44 under setting [5]; -0.86 under setting [6]. In addition, the “phospho-S6 immunofluorescence (z-score)” value by setting is: under setting [7], -2.08; under setting [8], -3.95; under setting [9], -0.09.
Take `N[C@]1(C(=O)O)CC[C@H](C(=O)O)C1` [trans-ACPD]: the “phospho-S6 immunofluorescence (z-score)” value was 0.63 under setting [1]; 0.81 under setting [2]; -0.39 under setting [3]; 0.01 under setting [4]; -0.53 under setting [5]; -1.65 under setting [6]. For the same molecule, the “phospho-S6 immunofluorescence (z-score)” value is, setting by setting: under setting [7], 0.3; under setting [8], 0.1; under setting [9], -0.68.
